Data as given in article PMC4364099.
These are yes or no findings as the source states them, for the method shown. For some of these results: In cells and extracts the contact can be indirect. Some binding calls cover weakened binding; strength is not graded here.

Sequences of proteins named here, by UniProt entry; tags and fusion partners are left off. Residues count along the entry.
UniProt O88427: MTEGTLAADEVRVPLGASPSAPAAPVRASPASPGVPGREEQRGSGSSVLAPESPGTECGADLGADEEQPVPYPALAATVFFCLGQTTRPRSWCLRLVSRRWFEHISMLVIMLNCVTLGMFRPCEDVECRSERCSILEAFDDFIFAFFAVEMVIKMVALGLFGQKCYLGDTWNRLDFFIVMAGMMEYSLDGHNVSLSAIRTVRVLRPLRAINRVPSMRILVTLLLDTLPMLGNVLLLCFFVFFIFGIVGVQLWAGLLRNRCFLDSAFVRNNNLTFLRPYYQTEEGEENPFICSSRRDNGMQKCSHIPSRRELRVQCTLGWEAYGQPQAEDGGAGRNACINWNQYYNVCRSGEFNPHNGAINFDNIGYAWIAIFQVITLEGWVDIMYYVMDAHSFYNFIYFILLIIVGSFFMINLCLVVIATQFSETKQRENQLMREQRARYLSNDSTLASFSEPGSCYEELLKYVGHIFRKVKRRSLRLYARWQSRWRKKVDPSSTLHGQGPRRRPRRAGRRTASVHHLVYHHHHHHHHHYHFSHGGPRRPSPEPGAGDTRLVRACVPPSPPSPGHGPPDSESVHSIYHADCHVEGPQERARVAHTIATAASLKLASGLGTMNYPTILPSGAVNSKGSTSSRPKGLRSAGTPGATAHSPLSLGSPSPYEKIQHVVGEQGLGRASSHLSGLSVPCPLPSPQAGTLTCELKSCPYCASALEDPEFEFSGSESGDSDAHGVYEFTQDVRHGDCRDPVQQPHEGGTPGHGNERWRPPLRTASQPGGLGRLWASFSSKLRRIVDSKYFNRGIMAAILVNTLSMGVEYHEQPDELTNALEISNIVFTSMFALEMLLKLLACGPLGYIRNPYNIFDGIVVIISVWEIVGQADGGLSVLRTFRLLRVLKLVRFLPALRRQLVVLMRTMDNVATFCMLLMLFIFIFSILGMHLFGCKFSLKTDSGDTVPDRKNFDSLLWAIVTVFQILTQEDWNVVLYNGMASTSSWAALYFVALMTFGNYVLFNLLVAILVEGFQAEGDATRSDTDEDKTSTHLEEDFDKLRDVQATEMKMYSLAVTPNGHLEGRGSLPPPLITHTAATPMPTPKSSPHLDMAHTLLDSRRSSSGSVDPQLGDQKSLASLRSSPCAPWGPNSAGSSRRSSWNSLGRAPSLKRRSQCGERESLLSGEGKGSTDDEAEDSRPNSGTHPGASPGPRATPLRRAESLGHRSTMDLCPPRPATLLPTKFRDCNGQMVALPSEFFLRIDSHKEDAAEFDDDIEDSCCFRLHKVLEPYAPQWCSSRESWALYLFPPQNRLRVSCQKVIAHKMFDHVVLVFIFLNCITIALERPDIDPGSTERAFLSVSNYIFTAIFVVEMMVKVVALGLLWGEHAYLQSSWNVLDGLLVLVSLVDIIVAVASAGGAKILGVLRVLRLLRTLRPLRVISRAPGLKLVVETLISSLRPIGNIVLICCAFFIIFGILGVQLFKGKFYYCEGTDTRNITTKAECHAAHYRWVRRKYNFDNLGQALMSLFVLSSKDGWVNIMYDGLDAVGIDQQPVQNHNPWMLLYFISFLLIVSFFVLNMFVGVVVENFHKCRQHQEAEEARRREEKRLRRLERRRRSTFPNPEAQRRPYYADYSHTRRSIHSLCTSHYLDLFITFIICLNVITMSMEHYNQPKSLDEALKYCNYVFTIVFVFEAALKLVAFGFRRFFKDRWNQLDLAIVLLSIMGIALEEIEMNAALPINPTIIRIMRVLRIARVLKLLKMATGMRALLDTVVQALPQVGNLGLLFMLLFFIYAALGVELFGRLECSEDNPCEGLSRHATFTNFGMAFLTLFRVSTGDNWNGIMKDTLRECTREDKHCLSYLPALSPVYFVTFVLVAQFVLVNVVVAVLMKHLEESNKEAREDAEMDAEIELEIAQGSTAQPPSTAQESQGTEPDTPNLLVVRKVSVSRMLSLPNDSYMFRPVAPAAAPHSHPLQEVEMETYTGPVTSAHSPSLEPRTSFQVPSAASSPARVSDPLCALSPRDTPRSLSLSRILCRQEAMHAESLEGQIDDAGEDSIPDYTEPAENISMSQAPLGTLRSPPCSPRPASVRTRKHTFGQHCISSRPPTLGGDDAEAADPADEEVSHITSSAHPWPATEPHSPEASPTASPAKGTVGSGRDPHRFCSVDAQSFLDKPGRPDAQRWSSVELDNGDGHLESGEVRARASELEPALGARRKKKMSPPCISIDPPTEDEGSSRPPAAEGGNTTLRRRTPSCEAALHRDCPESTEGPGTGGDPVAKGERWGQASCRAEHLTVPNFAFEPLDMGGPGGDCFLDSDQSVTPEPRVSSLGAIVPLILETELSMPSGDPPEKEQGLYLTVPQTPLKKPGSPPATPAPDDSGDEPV
UniProt O95180, residues 1556-1602: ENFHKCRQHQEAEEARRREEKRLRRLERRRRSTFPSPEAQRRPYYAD
UniProt P56399: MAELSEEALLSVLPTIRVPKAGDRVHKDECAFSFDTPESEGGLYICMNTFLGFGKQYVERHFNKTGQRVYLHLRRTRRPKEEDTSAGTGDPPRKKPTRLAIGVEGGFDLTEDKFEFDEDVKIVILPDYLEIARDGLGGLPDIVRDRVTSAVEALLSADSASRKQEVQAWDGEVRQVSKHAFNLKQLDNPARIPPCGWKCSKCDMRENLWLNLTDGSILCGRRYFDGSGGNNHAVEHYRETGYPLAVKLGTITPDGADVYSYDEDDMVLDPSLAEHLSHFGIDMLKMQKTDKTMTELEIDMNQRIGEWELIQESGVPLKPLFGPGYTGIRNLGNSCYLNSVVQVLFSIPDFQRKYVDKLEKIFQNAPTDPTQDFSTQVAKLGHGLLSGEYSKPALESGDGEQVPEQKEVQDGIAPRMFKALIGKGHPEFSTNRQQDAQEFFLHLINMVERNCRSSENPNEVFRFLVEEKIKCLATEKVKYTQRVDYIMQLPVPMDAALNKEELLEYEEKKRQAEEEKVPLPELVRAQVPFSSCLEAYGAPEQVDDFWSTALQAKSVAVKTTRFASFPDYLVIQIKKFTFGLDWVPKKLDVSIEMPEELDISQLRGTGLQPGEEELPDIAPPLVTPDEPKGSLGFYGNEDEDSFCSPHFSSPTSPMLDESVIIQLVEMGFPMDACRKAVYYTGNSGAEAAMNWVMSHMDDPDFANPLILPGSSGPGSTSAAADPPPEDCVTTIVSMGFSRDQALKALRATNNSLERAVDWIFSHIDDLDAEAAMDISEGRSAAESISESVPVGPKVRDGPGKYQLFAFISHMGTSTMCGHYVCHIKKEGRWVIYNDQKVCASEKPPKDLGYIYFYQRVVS
UniProt P45974: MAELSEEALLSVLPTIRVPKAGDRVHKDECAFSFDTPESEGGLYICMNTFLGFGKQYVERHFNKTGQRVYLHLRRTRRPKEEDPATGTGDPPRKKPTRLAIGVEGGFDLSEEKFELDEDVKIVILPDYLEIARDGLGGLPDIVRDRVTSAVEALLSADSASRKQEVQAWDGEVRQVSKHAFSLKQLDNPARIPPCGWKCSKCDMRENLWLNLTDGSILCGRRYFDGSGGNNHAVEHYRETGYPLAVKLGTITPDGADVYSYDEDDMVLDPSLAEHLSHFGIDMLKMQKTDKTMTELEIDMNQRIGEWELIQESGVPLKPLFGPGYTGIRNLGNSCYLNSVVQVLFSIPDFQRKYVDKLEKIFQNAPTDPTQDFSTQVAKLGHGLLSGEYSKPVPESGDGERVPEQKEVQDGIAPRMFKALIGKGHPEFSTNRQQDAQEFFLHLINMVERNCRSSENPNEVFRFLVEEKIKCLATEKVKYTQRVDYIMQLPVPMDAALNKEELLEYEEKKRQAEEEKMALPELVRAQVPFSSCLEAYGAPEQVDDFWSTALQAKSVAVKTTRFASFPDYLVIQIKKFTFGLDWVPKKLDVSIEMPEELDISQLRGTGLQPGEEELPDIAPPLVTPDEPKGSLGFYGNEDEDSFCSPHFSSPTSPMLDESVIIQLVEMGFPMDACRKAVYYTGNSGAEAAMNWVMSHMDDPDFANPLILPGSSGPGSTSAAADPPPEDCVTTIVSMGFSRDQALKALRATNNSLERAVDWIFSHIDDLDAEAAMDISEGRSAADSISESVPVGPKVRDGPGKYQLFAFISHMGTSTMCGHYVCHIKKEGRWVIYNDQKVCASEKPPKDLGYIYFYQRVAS

Key:
[1] = biological target: Cav3.2 channel (endogenous, mouse) (mouse (endogenous in mouse brain and dorsal horn)) (UniProt O88427); experiment: co-IP; mouse dorsal horn lysates from naive mice and from diabetic (ob/ob) mice treated i.t. with vehicle or suramin (10 ug); anti-Cav3.2 (H-300) immunoprecipitates probed for USP5 by western blot
[2] = biological target: Cav3.2 channel (endogenous, mouse) (mouse (endogenous in mouse brain and dorsal horn)) (UniProt O88427); experiment: co-IP; whole mouse brain lysate in modified RIPA buffer; anti-Cav3.2 (H-300) with Protein G/A beads overnight at 4°C; immunoprecipitates incubated with vehicle, suramin, gossypetin or oxytetracycline; blot for USP5
[3] = biological target: biotinylated human Cav3.2(1556-1602)-III-IV linker peptide (46 mer) (human) (UniProt O95180); experiment: ELISA; 96-well neutravidin-coated plate with 5 ug biotinylated Cav3.2 46 mer; 0.5 ug recombinant hUSP5 long, preincubated or not with 50 ug non-biotinylated 21 mer for 1 h at RT; 50 mM Tris, 150 mM NaCl, 0.05% Tween-20; detection by rabbit anti-USP5, HRP secondary, QuantaBlu RFU (Ex/Em 325/440 nm); both purified
[4] = biological target: biotinylated human Cav3.2(1556-1602)-III-IV linker peptide (46 mer) (human) (UniProt O95180); experiment: ELISA; 384-well screening format: neutravidin-coated plates, biotinylated Cav3.2 III-IV linker peptide (0.0039 ug/ul, 15 ul), USP5 (0.00078 ug/ul, 15 ul), Tris buffer (50 mM Tris, 150 mM NaCl, pH 7.5), RT; compounds at 6.3 uM; negative control wells without USP5; detection by anti-USP5, HRP secondary, QuantaBlu RFU; both purified

“USP5 (endogenous, mouse) (from UniProt P56399 1-858) (enzyme)” was tested, and the binding [1] was “binds” and the binding [2] was “binds”.

With “recombinant human USP5 (long splice isoform) (from UniProt P45974 1-858) (enzyme)” the binding [3] was “binds” and the binding [4] was “binds”.
